PubChem BioAssay AID588590 (National Center for Advancing Translational Sciences (NCATS), 2011)
Several values for one entry are separate records, joined by “and”; a condition that tells them apart may be missing. Equal values may be shown once. Among all 390,000 compounds or so, about 4,000 (1%) were called active. Inconclusive results, whose numbers are uncertain, are shown with a selection of clear calls. The call rests on the fitted dose curve; in most records, active means well fitted inhibition curve with a large enough effect; inconclusive means small, poorly fitted or top-dose-only effect, or another doubt; inactive means no such curve, though single readings can be large or run the other way. Potencies beside an inconclusive call are fits to weak or partial responses and may not hold up.

Amino acid sequences for entries named in this document (tags omitted). A change or cut given only in a name is not applied to a line headed by its entry.
UniProt Q9UNA4: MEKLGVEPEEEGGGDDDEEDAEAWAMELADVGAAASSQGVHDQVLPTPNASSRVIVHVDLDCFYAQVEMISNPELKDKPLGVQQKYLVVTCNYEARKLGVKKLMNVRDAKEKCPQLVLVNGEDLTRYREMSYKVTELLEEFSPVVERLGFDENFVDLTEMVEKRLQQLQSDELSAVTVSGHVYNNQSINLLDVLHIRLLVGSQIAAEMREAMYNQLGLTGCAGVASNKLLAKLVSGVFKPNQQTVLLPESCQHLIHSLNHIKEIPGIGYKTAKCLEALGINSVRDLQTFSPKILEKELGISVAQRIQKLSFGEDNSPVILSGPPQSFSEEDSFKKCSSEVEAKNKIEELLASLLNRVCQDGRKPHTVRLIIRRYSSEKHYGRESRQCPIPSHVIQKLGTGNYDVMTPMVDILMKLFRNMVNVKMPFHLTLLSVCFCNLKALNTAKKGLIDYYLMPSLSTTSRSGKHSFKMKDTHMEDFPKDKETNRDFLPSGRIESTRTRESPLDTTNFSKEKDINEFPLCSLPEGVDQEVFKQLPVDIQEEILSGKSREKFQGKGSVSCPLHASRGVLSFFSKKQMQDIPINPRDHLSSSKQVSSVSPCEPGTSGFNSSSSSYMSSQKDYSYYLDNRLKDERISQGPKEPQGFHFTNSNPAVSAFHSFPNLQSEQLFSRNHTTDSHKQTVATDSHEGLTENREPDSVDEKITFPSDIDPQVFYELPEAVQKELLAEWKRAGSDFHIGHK

What follows are compounds tested against DNA polymerase iota (Homo sapiens) (UniProt Q9UNA4) (assay: qHTS for Inhibitors of Polymerase Iota). Details: Pol iota fluorescent replication assay, 10 min; series mostly up to 115 µM.
Procedure, shortened: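 Pol iota at 10 nM preincubated 15 min with compounds at room temperature; reaction started with fluorescent substrate, 50 nM final. Fluorescence read kinetically at 0 and 10 min; buffer-only wells as negative control.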
Potency means the concentration at half of the fitted maximal effect.

Structure (SMILES) | Potency
CCCSc1ccc([C@@H]2[C@H]3C(=O)N(CC)C(=O)[C@H]3[C@]3(C(=O)OC)CCCN23)cc1 | inconclusive: 31.6 µM [inhibitor, partial curve, poor fit]
CO/N=C/NC(=O)c1c(OC)ccnc1Oc1ccccc1 | inconclusive: 56.2 µM [inhibitor, partial curve, poor fit]
Cc1nn(Cc2ccccc2)c2c1C(c1cccnc1)C(C#N)=C(N)O2 (stereo not drawn) | inconclusive: 14.1 µM [inhibitor, partial curve, poor fit]
COc1ccc(/C=C(\NC(=O)c2cccs2)C(=O)Nc2ccc(C)cc2)cc1OC | inconclusive: 22.4 µM [inhibitor, full curve, poor fit]
CCOC(=O)c1cc(C)sc1NC(=O)c1ccc(Cl)s1 | inconclusive: 20 µM [inhibitor, partial curve, poor fit]
CC1(C)Oc2cc(N)c([N+](=O)[O-])cc2O1 | inconclusive: 25.1 µM [inhibitor, full curve, poor fit]
COc1ccc(N2Cc3cccc(C(=O)Nc4ccc(C)c(C)c4)c3C2=O)cc1 | inconclusive: 89.1 µM [inhibitor, single point]
O=C(Nc1ccc(-c2nc3cccnc3s2)cc1)c1ccco1 | inconclusive: 6.31 µM [inhibitor, partial curve, poor fit]
COc1ccc(/C=C(\C#N)C(=O)Nc2cc(S(=O)(=O)N3CCOCC3)ccc2N2CCCC2)cc1 | inconclusive: 12.6 µM [inhibitor, full curve]
Cc1cc(C)c(S(=O)(=O)Nc2ccc(O)c(Sc3ncn[nH]3)c2)cc1C | inconclusive: 17.8 µM [inhibitor, full curve, poor fit]
O=C(CCCN1C(=O)/C(=C/c2ccc(F)cc2)SC1=S)NC1CCS(=O)(=O)C1 (stereo not drawn) | inactive
CC(C)[C@H](NC(N)=O)C(=O)Nc1cccc(S(=O)(=O)N2CCOCC2)c1 | inactive
O=C(Nc1ccc(OC(=O)c2cccs2)cc1)c1ccco1 | inconclusive: 39.8 µM [inhibitor, single point]
Nn1c(SCC(=O)NCCc2ccc(F)cc2)nnc1C1CCCCC1 | inconclusive: 39.8 µM [inhibitor, partial curve, poor fit]
COc1cc(/C=C2\SC(=O)NC2=O)ccc1OCc1ccc(Cl)nc1 | inconclusive: 89.1 µM [inhibitor, single point]
Clc1ccccc1-c1csc(Nc2cccnc2)n1 | inconclusive: 89.1 µM [inhibitor, partial curve]
Cc1ccc(Cl)cc1NC(=O)c1ccc2snnc2c1 | inconclusive: 89.1 µM [inhibitor, single point]
Cc1c(C(=O)O)sc2nc(CSc3ncc(C(F)(F)F)cc3Cl)[nH]c(=O)c12 | inconclusive: 20 µM [inhibitor, single point]
CCN(CC)c1ccc(/C=N/n2c(C)cc(C)cc2=O)cc1 | inactive

Structure (SMILES) | Potency
COc1cccc(/C=N/Nc2cc(-n3nc(C)cc3-c3ccccc3)ncn2)c1O | inconclusive: 44.7 µM [inhibitor, partial curve]
COc1ccc(C(=O)Nc2nnc(S(=O)(=O)N(CC(C)C)c3ccccc3)s2)cc1 | inconclusive: 89.1 µM [inhibitor, partial curve, poor fit]
O=C(c1ccccc1)[C@@H]1[C@@H]2C(=O)N(c3ccc(F)cc3)C(=O)[C@@H]2C2CCCN21 (stereo partly drawn) | inconclusive: 56.2 µM [inhibitor, partial curve, poor fit]
Cn1c(=O)c2c(nc(CN3CCc4ccccc4C3)n2Cc2ccccc2F)n(C)c1=O | inconclusive: 39.8 µM [inhibitor, single point]
Cc1ccc(CNS(=O)(=O)c2ccc(C(F)(F)F)cc2)n1C | inconclusive: 25.1 µM [inhibitor, partial curve, poor fit]
COc1ccc(NS(=O)(=O)c2ccc3oc(Nc4ccc5c(c4)OCCO5)nc3c2)cc1 | inconclusive: 25.1 µM [inhibitor, partial curve, poor fit]
Oc1c(Br)cc(Br)cc1C=Nc1ccc2[nH]ncc2c1 | inactive
O=C(CSc1nnc(-c2cnccn2)n1Cc1ccco1)c1ccc2ccccc2c1 | inconclusive: 7.94 µM [inhibitor, full curve, poor fit]
Cc1ccc(-c2nnc3ccccc3c2C(=O)Nc2cccc(Cl)c2)cc1 | inactive
CCOC(=O)c1c2c3c(c(Cl)ccc3[nH]c1=O)C(=O)c1ccccc1-2 | inconclusive: 35.5 µM [inhibitor, full curve, poor fit]
Cc1cc2[nH]c(=O)c(=O)[nH]c2cc1S(=O)(=O)N1CCN(c2cccc(C)c2C)CC1 | inconclusive: 39.8 µM [inhibitor, partial curve, poor fit] and inconclusive: 44.7 µM [inhibitor, partial curve, poor fit]
O=C(CSc1n[nH]c(=O)n1Cc1ccco1)c1ccc2c(c1)OCCO2 | inconclusive: 0.562 µM [inhibitor, full curve, poor fit]
Cc1cccc(-c2nc(SCC(=O)NCc3ccco3)c3c(=O)n(C)c(=O)n(C)c3n2)c1 | inactive
CCOC(=O)c1c(NC(=S)Nc2ccccc2)sc(C)c1C | inconclusive: 79.4 µM [inhibitor, partial curve]
O=C(Cn1nnc2ccccc21)Nc1ccccc1[N+](=O)[O-] | inconclusive: 100 µM [inhibitor, single point]
O=C(CSC1=NCCN1)NC12CC3CC(CC(C3)C1)C2 | inconclusive: 11.2 µM [inhibitor, partial curve, poor fit]
O=C(O)c1[nH]c2ccc(Cl)cc2c1CC(=O)N1CCN(C(=O)c2ccco2)CC1 | inconclusive: 20 µM [inhibitor, full curve, poor fit]
Cc1cccc(-n2ccnc2SCC(=O)Nc2nc3ccccc3s2)c1 | inconclusive: 89.1 µM [inhibitor, partial curve, poor fit]
CCNC(=O)CN(c1ccccc1)S(=O)(=O)c1ccc(Cl)cc1 | inconclusive: 112 µM [inhibitor, single point]

Copied from the list.
Under Potency, Cn1c(=O)c2c(nc(CN3CCc4ccccc4C3)n2Cc2ccccc2F)n(C)c1=O has inconclusive: 39.8 µM [inhibitor, single point]
Under Potency, O=C(c1ccccc1)[C@@H]1[C@@H]2C(=O)N(c3ccc(F)cc3)C(=O)[C@@H]2C2CCCN21 (stereo partly drawn) has inconclusive: 56.2 µM [inhibitor, partial curve, poor fit]
Under Potency, O=C(O)c1[nH]c2ccc(Cl)cc2c1CC(=O)N1CCN(C(=O)c2ccco2)CC1 has inconclusive: 20 µM [inhibitor, full curve, poor fit]
